The target of this experiment is TetR fused to DOT1L (UniProt Q8TEK3). The experiment can be described thus: TetR recruitment to a TetO array, read by ChIP-qPCR.

Amino acid sequences for entries named in this document (tags omitted).
UniProt Q8TEK3: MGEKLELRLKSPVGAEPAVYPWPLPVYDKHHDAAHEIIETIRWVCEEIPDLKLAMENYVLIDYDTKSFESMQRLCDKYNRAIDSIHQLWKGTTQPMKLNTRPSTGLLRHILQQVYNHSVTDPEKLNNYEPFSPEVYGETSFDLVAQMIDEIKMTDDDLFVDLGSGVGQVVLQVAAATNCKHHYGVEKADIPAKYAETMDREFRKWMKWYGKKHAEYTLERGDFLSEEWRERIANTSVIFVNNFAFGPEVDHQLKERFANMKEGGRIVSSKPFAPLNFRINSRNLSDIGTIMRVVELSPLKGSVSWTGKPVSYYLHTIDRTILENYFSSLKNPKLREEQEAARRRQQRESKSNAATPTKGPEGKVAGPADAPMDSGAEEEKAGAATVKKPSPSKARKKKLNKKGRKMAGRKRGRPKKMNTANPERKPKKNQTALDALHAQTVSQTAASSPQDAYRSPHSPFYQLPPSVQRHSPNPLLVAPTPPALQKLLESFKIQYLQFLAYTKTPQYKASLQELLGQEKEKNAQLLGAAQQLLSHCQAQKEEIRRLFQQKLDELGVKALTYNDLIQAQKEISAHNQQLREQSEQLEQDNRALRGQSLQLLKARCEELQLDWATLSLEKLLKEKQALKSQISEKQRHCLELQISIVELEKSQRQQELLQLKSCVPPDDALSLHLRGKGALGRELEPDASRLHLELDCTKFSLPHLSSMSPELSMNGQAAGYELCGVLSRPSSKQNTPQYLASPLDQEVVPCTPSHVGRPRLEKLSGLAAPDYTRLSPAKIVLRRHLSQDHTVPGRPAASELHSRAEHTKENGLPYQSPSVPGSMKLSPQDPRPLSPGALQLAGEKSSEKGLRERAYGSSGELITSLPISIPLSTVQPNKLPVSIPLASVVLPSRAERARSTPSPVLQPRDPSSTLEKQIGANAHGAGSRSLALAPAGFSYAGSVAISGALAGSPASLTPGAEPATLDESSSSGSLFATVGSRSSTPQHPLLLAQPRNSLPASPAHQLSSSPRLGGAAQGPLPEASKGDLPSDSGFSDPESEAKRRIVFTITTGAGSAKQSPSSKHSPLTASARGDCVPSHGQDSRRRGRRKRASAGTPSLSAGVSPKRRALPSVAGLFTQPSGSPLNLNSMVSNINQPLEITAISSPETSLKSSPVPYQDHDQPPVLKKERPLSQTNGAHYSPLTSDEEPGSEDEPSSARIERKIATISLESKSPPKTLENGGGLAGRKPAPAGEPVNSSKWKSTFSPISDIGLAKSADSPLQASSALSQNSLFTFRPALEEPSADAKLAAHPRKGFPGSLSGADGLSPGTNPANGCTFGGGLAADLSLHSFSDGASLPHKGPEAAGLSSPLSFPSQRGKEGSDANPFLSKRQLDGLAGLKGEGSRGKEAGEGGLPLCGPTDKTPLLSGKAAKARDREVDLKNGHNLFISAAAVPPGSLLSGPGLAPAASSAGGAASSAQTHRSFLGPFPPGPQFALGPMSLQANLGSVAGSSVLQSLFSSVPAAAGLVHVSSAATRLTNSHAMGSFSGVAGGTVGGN

These are yes or no findings as the source states them, for the method shown. Some entries that bind do so weakly or less than the wild type.

B1: ENL, endogenous in mESCs (protein, UniProt Q9ERL0 1-547)
chain: MDNQCTVQVKLELGHRAQLRKKPTTEGFTHDWMVFVRGPEQCDIQHFVEKVIFRLHDSFPKPKRVCKEPPYKVEESGYAGFIMLIEVYFKNKEEPRKVCFTYDLFLNLEGNPPVNHLRCEKLTFNNPTTEFRCKLLMAGGVMVMPEGADTVSRPSPDYPMLPTIPLSAFSDPKKNKPSHGSKDANKESGKASKPHKVAREHRERPRKDSESRSCSKEPEREPKSAKDAARKLPKEEKAPVPKAAFKEPKMALKETKLESLSPKGVPQPPTLPKASSKRPAATDSPKLSAKKPKKSGSKGTRRAPGTSPRASSFPDKKVARDKNSKGDKGKAESEPREAKRTLQTEDSNSEDEASFRSESAQSSPANASSSSDSSSDSDFEPSQNHSQGPLRSMVEDLQSEGSDEDDSSSGEENTGKANPGRESRLSFSDSESDNSADSCLPGREPLPPQKPPPPSSKVSGRRSPEPCSKPEKMLKKATYDKAYTDELVELHRRLMALRERNVLQQIVNLIEETGHFNVTNTTFDFDLFSLDESTVRKLQSCLEAVAT
For the molecule B1, the binding entry is given as “binds”.
